The values are deposited in ChEMBL (CHEMBL3988442, “University of Dundee, Small-Polar-MMV Screening Library” (2021)).

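Assay of Toxoplasma gondii numbers, read through their beta-galactosidase reporter with a colour substrate. Compounds at 10 µM. Higher reads as fewer parasites (inferred from which compounds were picked for retests). Of about 67,000 compounds tested this way, about 260 (0.38%) reached 50% or more in at least one test.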

Each number is a percent effect as filed.
The record does not define 0% and 100%; most values in the screen are far below 50% and negative numbers occur (in some assays of this library far below -100).
This is an unselected part of the compounds tested.

- Cn1nc(CN2CCC(c3ccncc3)CC2)c2c(Cl)cccc21 : 4.118%
- O=C1NCC(C(=O)N(Cc2cccc(Br)c2)C2CC2)N1 (stereo not given) : -8.1%
- CCn1nc(C)c(CN2CCC(c3ccc(C(=O)O)cc3)C2)c1C (stereo not given) : -55.79%
- COC(=O)c1cc(OC)c(OC)cc1N(C)S(C)(=O)=O : 7.49%
- CCc1ncc(CN2CCC3(CCCN(CC4CCC4)C3)C2)cn1 (stereo not given) : -9.686%
- O=C(O)C(F)(F)F.O=C(O)C(F)(F)F.O=C(O)C(F)(F)F.[H][C@]12C[C@@H](CN3CCCC3)N(c3nccs3)[C@@]1([H])CCN(C)C2 : -10.21%
- COc1ccc(C(=O)NS(=O)(=O)c2ccc(CNC(C)=O)s2)cc1 : 1.402%
- Cc1ccc(S(=O)(=O)N2CCC(S(=O)(=O)c3nncn3C)CC2)cc1C : -10.33%
- O=C(c1cnc(COc2ccccc2)nc1O)N1CCC(F)(F)CC1 : -3.964%
- O=C(NCCOc1cccc(Cl)c1)C1CC(=O)N(CC2CC2)C1 (stereo not given) : -11.61%
- CC(=O)c1ccc(OCC(=O)NS(=O)(=O)c2ccc(Cl)s2)cc1 : 4.779%
- COc1ccc(C(=O)Nc2n[nH]c(C3CCCO3)n2)cc1 (stereo not given) : 8.746%
- Cc1ccc(C(=O)N2CC(=O)N(Cc3ccco3)CC(O)C2)cc1 (stereo not given) : 18.89%
- NC(=O)COc1cccc(Cn2cc(Br)cn2)c1 : 5.737%
- CC(C)c1noc(C(C)N2CCN(Cc3nnc(C4CC4)o3)CC2)n1 (stereo not given) : -6.578%
- CSc1nccc(NCc2cc3n(n2)CCCN(S(C)(=O)=O)C3)n1 : 12.37%
- Cc1nccn1C1CCCN(C(=O)c2ccc3c(c2)NC(=O)CO3)C1 (stereo not given) : 15.8%
- CN(C)C(=O)C1CCCN1c1ccnc2ccsc12 (stereo not given) : -41%
- CC(C(=O)NCCOc1ccccc1)n1cncn1 (stereo not given) : -14.5%
- [H][C@]12C[C@H](C(=O)NC)N(S(C)(=O)=O)[C@@]1([H])CN(C(=O)c1cscn1)C2 : 1.923%
- CCN(Cc1ccc2c(c1)OCO2)C(=O)CCc1c(C)nc(C)[nH]c1=O : -21.31%
- Cc1onc(N)c1S(=O)(=O)N1CCCCC1C (stereo not given) : 3.714%
- CCOc1ccc(C(=O)n2cccn2)cc1 : 8.91%
- CCn1cnnc1C1CCN(C(=O)c2cc(OC)ccc2OC)CC1 : 23.13%
- CN(Cc1nc(C(C)(C)C)no1)C1CCS(=O)(=O)C1 (stereo not given) : -0.6012%
- O=C(O)C(F)(F)F.O=c1ccc2c(n1CC1CC1)CCC(NCc1cccs1)C2 (stereo not given) : -10.37%
- CC(=O)N1CCN(Cc2ccc3c(c2)OCCO3)CC(O)C1 (stereo not given) : -26.03%
- COc1ccc(NC(C)c2nnnn2-c2ccccc2)cn1 (stereo not given) : 7.935%
- O=C(NCC(=O)N1CCCCC1)c1ccc(Cl)cc1I : -3.693%
- CC(O)C1CCN(c2cc(Cl)ccc2C#N)CC1 (stereo not given) : 3.236%
- Cc1noc(C)c1CN1CCCC2(CCN(C(=O)CC3CC3)C2)C1 (stereo not given) : 0.4224%
- O=C(NCC1CC1)C1CN(C(=O)c2cccnc2)CC12CCOCC2 (stereo not given) : -6.319%
- O=C(c1csc(-c2cccs2)n1)N1CCCC1Cn1cccn1 (stereo not given) : 1.444%
- O=C(N1CCCC1)N1CCn2c(nnc2C2CCCN2)C1 (stereo not given) : 3.412%
- CN1CCN(S(=O)(=O)c2ccc(Sc3nccn3C)nc2)CC1 : 20.81%
- Cc1ccn(-c2ccnc(N3CCN(c4ncccn4)CC3)n2)n1 : -15.29%
- Cc1[nH]c2nc(CNc3cccc(Cl)c3)nn2c(=O)c1C : 12.94%
- COc1c(C)cnc(CSc2nnc(N3CCCC3)s2)c1C : -0.5814%
- Cc1cc(C2CCCN(C(=O)COc3cc(C)on3)C2)n[nH]1 (stereo not given) : -6.219%
- CN(C)C(=O)CN(C)C(=O)c1cccn1CCc1ccccc1 : 0.7088%
- c1ccc(CN2CCCC(c3nccnc3-n3ccnc3)C2)cc1 (stereo not given) : -3.161%
- O=C(Cc1cccs1)N1CCCCC1c1ccn2ccnc2n1 (stereo not given) : -6.753%
- [H][C@@]12OCCN(C(=O)c3nn(C)c4ccccc34)[C@@]1([H])CC[C@H]2OC(C)C : -6.263%
- CCN(CC1CCOC1)C(=O)c1ccc(COc2ccccc2C#N)o1 (stereo not given) : -16.27%
- N[C@H]1CN(C(=O)CCC(F)(F)F)C[C@@H]1c1ccccc1 : 2.071%
- Cc1cccc(C(=O)N2CCc3c(COCC4CC4)cncc3C2)n1 : -12.03%
- Fc1cnc(N2CCCC3(CCN(Cc4ccco4)C3)C2)nc1.O=C(O)C(F)(F)F.O=C(O)C(F)(F)F (stereo not given) : 8.412%
- Cc1cnc(CNC(=O)NCCOc2ncccc2Cl)s1 : 13.21%
- CC(C)Oc1ncc(C(=O)N2CCC(CC(N)=O)CC2)cc1Cl : -2.913%
- Cc1ccc(C2CCCN(S(C)(=O)=O)C2)nc1 (stereo not given) : -15.19%
- O=C(O)C(F)(F)F.O=C(O)C(F)(F)F.[H][C@@]12COC[C@]1(CNC(=O)C1CCC1)CN(Cc1cccnc1)C2 : -21.24%
- COc1ccc(CN2CCC3(CCCN(C)C3=O)C2)c(OC)c1C (stereo not given) : 11.1%
- Oc1nnc(-c2cccs2)c2sc(N3CCCCC3)nc12 : 18.45%
- O=C(CS(=O)(=O)c1cccc[n+]1[O-])NC1CCCc2ccccc21 (stereo not given) : 0%
- CCOCCCNC(=O)c1cc(C)nc(N2CCCCC2)n1 : 7.071%
- N#Cc1cccc(CNc2cc(CO)ccc2Cl)c1 : 11.38%
- O=C(NCCc1cccs1)NCC(O)c1cccc(F)c1 (stereo not given) : -29.92%
- CC(C)c1nc(C2CCCN(Cc3nnc(C4CC4)o3)C2)no1 (stereo not given) : -6.232%

For reference, 8 entries once more:

SMILES,percent effect
Cc1ccc(C(=O)N2CC(=O)N(Cc3ccco3)CC(O)C2)cc1 (stereo not given),18.89%
O=C(NCCOc1cccc(Cl)c1)C1CC(=O)N(CC2CC2)C1 (stereo not given),-11.61%
CCn1nc(C)c(CN2CCC(c3ccc(C(=O)O)cc3)C2)c1C (stereo not given),-55.79%
CC(=O)c1ccc(OCC(=O)NS(=O)(=O)c2ccc(Cl)s2)cc1,4.779%
CCN(CC1CCOC1)C(=O)c1ccc(COc2ccccc2C#N)o1 (stereo not given),-16.27%
CSc1nccc(NCc2cc3n(n2)CCCN(S(C)(=O)=O)C3)n1,12.37%
COc1ccc(CN2CCC3(CCCN(C)C3=O)C2)c(OC)c1C (stereo not given),11.1%
Cc1nccn1C1CCCN(C(=O)c2ccc3c(c2)NC(=O)CO3)C1 (stereo not given),15.8%